From paper PMC5735978
No constants are given. Whether binding was seen depends on the method and setting. Binding seen in cells or lysates may run through a third protein. These calls come from enrichment with a bait or labelling near it, and not all partners need be listed. For part of these data: No binding means not detected with the bait. For part of these data: Where a sequence is shown, tags or fusion partners need not be part of it.

Amino acid sequences for entries named in this document (tags omitted).
UniProt P31946: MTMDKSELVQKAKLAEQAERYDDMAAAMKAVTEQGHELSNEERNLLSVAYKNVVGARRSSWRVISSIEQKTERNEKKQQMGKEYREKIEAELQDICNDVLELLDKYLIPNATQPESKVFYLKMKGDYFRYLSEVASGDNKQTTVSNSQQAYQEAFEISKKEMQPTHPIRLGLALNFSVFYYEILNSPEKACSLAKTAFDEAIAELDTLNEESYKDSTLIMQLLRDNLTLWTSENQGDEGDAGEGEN
UniProt P63104: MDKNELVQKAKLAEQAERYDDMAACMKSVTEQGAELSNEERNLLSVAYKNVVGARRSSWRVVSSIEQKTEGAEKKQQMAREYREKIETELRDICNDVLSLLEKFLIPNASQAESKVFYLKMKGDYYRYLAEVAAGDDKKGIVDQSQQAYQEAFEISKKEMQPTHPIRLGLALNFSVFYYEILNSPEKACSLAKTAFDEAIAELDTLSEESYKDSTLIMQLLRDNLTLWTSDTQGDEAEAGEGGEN
UniProt P62258: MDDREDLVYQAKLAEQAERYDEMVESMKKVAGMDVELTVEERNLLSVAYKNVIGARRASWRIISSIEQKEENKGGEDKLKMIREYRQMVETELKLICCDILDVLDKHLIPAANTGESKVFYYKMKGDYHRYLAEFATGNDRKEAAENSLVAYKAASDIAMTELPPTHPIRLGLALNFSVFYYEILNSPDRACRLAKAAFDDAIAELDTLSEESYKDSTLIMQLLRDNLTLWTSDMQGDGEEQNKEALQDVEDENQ

What was measured:
Assay in all cases: affinity purification with mass spectrometry; 3xFlag-PAK6 variants immunoprecipitated from transfected HEK293T lysates with anti-Flag M2 agarose; SDS-PAGE, Coomassie staining; doublet around 25 kDa identified by LC-MS/MS
[1] = molecular target: T1, 3xFlag-PAK6 K436M (UniProt Q9NQU5)
T1 sequence: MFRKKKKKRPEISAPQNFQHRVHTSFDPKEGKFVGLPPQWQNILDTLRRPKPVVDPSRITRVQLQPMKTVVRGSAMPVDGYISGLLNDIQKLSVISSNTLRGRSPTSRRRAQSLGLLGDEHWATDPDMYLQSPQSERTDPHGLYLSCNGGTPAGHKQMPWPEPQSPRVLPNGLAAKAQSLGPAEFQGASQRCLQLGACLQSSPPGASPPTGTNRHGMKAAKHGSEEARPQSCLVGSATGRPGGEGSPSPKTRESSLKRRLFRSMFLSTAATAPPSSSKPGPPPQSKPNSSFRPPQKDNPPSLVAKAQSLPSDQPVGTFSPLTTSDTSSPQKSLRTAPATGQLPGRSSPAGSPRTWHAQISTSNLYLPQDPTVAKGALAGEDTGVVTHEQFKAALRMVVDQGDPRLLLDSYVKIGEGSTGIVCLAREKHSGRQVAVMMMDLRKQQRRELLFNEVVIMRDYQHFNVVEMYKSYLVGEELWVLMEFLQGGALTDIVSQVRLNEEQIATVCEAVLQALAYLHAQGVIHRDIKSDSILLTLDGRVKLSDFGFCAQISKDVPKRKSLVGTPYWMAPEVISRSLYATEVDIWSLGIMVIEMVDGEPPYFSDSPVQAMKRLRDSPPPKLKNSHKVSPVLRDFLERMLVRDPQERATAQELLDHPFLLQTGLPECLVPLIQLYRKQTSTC

[2] = molecular target: 3xFlag-PAK6 S531N (UniProt Q9NQU5)
[3] = molecular target: 3xFlag-PAK6 wild-type (UniProt Q9NQU5)

Row | binding [1] | binding [2] | binding [3] | Substance
1 | no binding | binds | binds | 14-3-3 beta (endogenous, HEK293T) (from UniProt P31946 1-246)
2 | no binding | binds | binds | 14-3-3 zeta (endogenous, HEK293T) (from UniProt P63104 1-245)
3 | no binding | binds | binds | 14-3-3 epsilon (endogenous, HEK293T) (from UniProt P62258 1-255)
